# Test results as given in the supplement of paper PMC3334620.
# Over roughly 33,000 sequences, “E-score (-0.5 to 0.5)” has its median near -0.016; the highest 2% begin near 0.3. The list shows a part of the results.
# Target: T1, Yer184c (UniProt P39961)
# T1 sequence: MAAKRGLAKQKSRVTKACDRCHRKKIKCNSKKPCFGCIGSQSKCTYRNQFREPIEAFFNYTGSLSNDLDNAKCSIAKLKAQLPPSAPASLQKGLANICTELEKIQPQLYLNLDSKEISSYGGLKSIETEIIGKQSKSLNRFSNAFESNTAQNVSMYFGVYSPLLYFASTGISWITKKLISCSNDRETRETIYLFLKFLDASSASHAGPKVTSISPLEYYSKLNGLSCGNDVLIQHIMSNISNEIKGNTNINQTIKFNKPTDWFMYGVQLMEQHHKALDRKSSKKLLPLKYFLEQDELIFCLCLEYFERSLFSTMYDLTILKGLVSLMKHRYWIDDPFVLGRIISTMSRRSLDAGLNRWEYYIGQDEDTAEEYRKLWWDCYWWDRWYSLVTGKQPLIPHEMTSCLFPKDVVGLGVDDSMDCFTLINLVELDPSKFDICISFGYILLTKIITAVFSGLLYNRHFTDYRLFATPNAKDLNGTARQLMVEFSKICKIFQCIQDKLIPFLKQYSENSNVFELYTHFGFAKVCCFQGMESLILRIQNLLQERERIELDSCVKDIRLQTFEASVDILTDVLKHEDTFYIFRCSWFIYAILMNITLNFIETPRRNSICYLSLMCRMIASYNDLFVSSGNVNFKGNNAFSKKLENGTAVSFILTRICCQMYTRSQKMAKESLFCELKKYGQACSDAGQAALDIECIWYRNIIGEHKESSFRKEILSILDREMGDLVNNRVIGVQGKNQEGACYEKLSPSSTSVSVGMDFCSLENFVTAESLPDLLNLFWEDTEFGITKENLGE
# Experiment: PBM E-score (8-mer binding enrichment) (E-score (-0.5 to 0.5)); higher = stronger / more preferred TF binding
# Conditions: protein concentration: 100 nM; construct: GST-full length
# Description: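 Universal 'all 10-mer' protein binding microarrays (Agilent AMADID 015681) probed with GST-tagged S. cerevisiae TFs (full-length or DBD) made by in vitro transcription/translation (PURExpress), about 100-200 nM. Bound TF was detected with fluorescent anti-GST. Each ungapped 8-mer (which stands for itself and its reverse complement) is scored by the PBM enrichment score (E-score), a modified Wilcoxon-Mann-Whitney statistic from -0.5 to +0.5, computed with the Universal PBM Analysis Suite. Scale: above 0.35 generally sequence-specific binding.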
row,Sequence,PBM E-score
1,CACACGAG,-0.237
2,ATTTTGTA,0.134
3,TCAGCGAA,-0.0684
4,CAGCTTCA,0.0904
5,ATTGCGGA,0.175
6,CCGCAAGG,-0.085
7,CTAACGCA,-0.0604
8,GAGTCCAC,-0.203
9,GATGGCAC,-0.201
10,AGTCTGAC,-0.173
11,AAAACTGA,-0.0375
12,GGTGGGTA,-0.224
13,CGCGACCA,-0.0919
14,CACGATTA,0.00527
15,ATCCTTCG,0.118
16,CGAGAAAA,0.072
17,CTAATCGC,0.0588
18,GTGAGGTA,-0.148
19,CAGCCACC,-0.0795
20,AGTAATAT,0.338
21,CTCAGACC,-0.09
22,CACAAAAG,0.151

row,Sequence,PBM E-score
1,CAGGGCTC,-0.226
2,TATGAACA,0.204
3,GCGAGGCA,0.0332
4,AAGACGCT,-0.144
5,ATTTAATA,0.313
6,AAATGGAA,0.00888
7,GCGCTACC,-0.133
8,AAGAAGCA,0.139
9,TTATCAAA,0.265
10,CAGCCCTC,-0.0383
11,AGGCGGTG,-0.185
12,ACTAGCCG,0.135
13,CCTCTGCA,-0.184
14,CTATGGCA,-0.229
15,TCATGCCA,0.0211
16,CGCTGAGC,-0.106
17,CCTACGAC,-0.141
18,TCGTAAAA,0.138
19,ACACGGCC,0.116
20,CCAACCAA,-0.235
21,CCGCGGGA,0.324
22,ACCGTAAG,0.154

# In a second layout: entries from further up
row	Sequence	PBM E-score
3	GCGAGGCA	0.0332
4	AAGACGCT	-0.144
5	ATTTAATA	0.313
6	AAATGGAA	0.00888
7	GCGCTACC	-0.133
8	AAGAAGCA	0.139
9	TTATCAAA	0.265
10	CAGCCCTC	-0.0383
11	AGGCGGTG	-0.185
12	ACTAGCCG	0.135
13	CCTCTGCA	-0.184
14	CTATGGCA	-0.229
15	TCATGCCA	0.0211
16	CGCTGAGC	-0.106
17	CCTACGAC	-0.141
18	TCGTAAAA	0.138
19	ACACGGCC	0.116
20	CCAACCAA	-0.235

# Later entries:

row,Sequence,PBM E-score
1,AAGTCTCG,0.041
2,CAAAAGTA,0.141
3,ACTAACTA,-0.0967
4,ATGGGCTA,-0.0105
5,CCGGAGGA,0.265
6,AGTTGGGC,-0.0254
7,GGTTTTTA,-0.0146
8,GACCGAAA,0.265
9,CTCTCCAA,0.061
10,ATGGCACA,-0.0226
11,CCGTTGAG,0.196
12,TCTTTTAA,0.176
13,GCTTATGA,0.00297
14,GTTGTACA,0.277
15,GGCCATGA,-0.0764
16,GCCGTTGA,0.107
17,CCCGTTAA,-0.0453
18,ACAATAAA,0.17
19,ACGACGCT,-0.0656
20,GCTCGAGA,-0.0216
21,ATAGCTAC,0.0242
22,AACATTGG,-0.242

row,Sequence,PBM E-score
1,AGACATCA,-0.0192
2,ACTGTCAC,0.00877
3,CAGGGTTA,-0.298
4,AGGTGTTA,-0.0862
5,CGACGTCC,0.139
6,TCTCTGCA,-0.052
7,CCACATCG,0.0234
8,CGGGGATA,0.0634
9,AAGTTGTA,0.2
10,AAACAACA,0.149
11,CGATTATC,0.0805
12,ACGCCACC,-0.244
13,ATAATTTG,0.166
14,TCTGAAGA,-0.0768
15,AGATCTCA,0.0334
16,GCTCGATA,0.134
17,CGGGGTCC,-0.0914
18,GAGAACGA,0.0869
19,AAGGGTCG,-0.00512
20,GTAGTGAC,0.00813
